Experimental data: PubChem BioAssay AID720505 (Drosophila RNAi Screening Center, 2013)

Test: 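Genes needed for store-operated calcium entry in fly cells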 (primary screen)
Cell system: Drosophila S2R+ cells
Knock-down reagent: long dsRNA against Drosophila genes
Challenge: thapsigargin (2 µM) in calcium-free buffer to empty internal stores, then 2 mM calcium added back
Detection: 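Stores emptied by 2 µM thapsigargin without calcium, then 2 mM calcium re-added; fluo-4 fluorescence followed by FLIPR in 384-well plates, per-well averaged endpoint, raw; two screen passes, some wells retested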
Direction: calcium signal and retest calcium signal: higher = more calcium entry after store depletion
Active means: 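About 1500 genes called as lowering calcium entry, by varying amounts, judged against per-plate control wells with STIM1 as positive and Rho1 as negative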
Meaning of the calls: active = called as lowering calcium entry; inactive = not called
The screen tested about 20,000 reagents; this is an unselected part of those with a known target gene and a result. Of all reagents, about 2,100 (10%) were called active. 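Raw plate signals without normalisation; calls rest on control-based scores that were not deposited; replicate 2 separates called from uncalled poorly.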 A plus sign joins genes that one reagent is predicted to hit. Not given: the amount of reagent, the time to read-out.

target gene | dsRNA | calcium signal, replicate 1 | calcium signal, replicate 2 | retest calcium signal, replicate 1 | retest calcium signal, replicate 2 | outcome
betaTub97EF | DRSC15666 | 196 | 171 | – | – | inactive
betaTub97EF | DRSC15667 | 147 | 163 | – | – | inactive
betaTub97EF | DRSC15668 | 177 | 205 | – | – | inactive
thr | DRSC07706 | 131 | 87.6 | – | – | inactive
Srp14 | DRSC15797 | 214 | 153 | – | – | inactive
CG12780 | DRSC06169 | 132 | 207 | – | – | inactive
CG32625 | DRSC18994 | 94.8 | 101 | – | – | inactive
SNF4Agamma | DRSC13463 | 76.9 | 102 | – | – | inactive
SNF4Agamma | DRSC15879 | 138 | 148 | – | – | inactive
SNF4Agamma | DRSC16847 | 189 | 379 | – | – | inactive
Sk1 | DRSC19774 | 69.6 | 79.8 | – | – | inactive
CCHa2-R | DRSC04825 | 110 | 166 | – | – | inactive
CCHa2-R | DRSC04870 | 123 | 159 | – | – | inactive
CCHa2-R | DRSC04871 | 142 | 163 | – | – | inactive
ix | DRSC06325 | 109 | 136 | – | – | inactive
dbf | DRSC02570 | 196 | 173 | – | – | inactive
Taf3 | DRSC17170 | 125 | 162 | – | – | inactive
Dus2 | DRSC19591 | 135 | 83.8 | – | – | inactive
RtGEF | DRSC03604 | 121 | 106 | – | – | inactive
RtGEF | DRSC22207 | 89.1 | 268 | – | – | inactive
CG14355 | DRSC14818 | 93.7 | 137 | – | – | inactive
mdy | DRSC01559 | 87 | 90.3 | – | – | inactive
mdy | DRSC02250 | 97.3 | 115 | – | – | inactive
CG30178 | DRSC21911 | 79 | 183 | – | – | inactive
CG9921 | DRSC20220 | 107 | 154 | – | – | inactive
lds | DRSC16988 | 120 | 170 | – | – | inactive
msi | DRSC17003 | 73.9 | 94.3 | – | – | active
Use1 | DRSC10180 | 92.2 | 99.3 | – | – | inactive
Acam + CG17770 | DRSC14110 | 160 | 176 | – | – | inactive
Acam + CG17770 | DRSC15264 | 213 | 159 | – | – | inactive
h-cup | DRSC15973 | 106 | 116 | – | – | inactive

Part of the list above in another layout.
CCHa2-R [DRSC04870]
- calcium signal, replicate 1: 123
- calcium signal, replicate 2: 159
- outcome: inactive

CCHa2-R [DRSC04871]
- calcium signal, replicate 1: 142
- calcium signal, replicate 2: 163
- outcome: inactive

ix [DRSC06325]
- calcium signal, replicate 1: 109
- calcium signal, replicate 2: 136
- outcome: inactive

dbf [DRSC02570]
- calcium signal, replicate 1: 196
- calcium signal, replicate 2: 173
- outcome: inactive

Taf3 [DRSC17170]
- calcium signal, replicate 1: 125
- calcium signal, replicate 2: 162
- outcome: inactive

Dus2 [DRSC19591]
- calcium signal, replicate 1: 135
- calcium signal, replicate 2: 83.8
- outcome: inactive

RtGEF [DRSC03604]
- calcium signal, replicate 1: 121
- calcium signal, replicate 2: 106
- outcome: inactive

Next entries follow.
target gene | dsRNA | calcium signal, replicate 1 | calcium signal, replicate 2 | retest calcium signal, replicate 1 | retest calcium signal, replicate 2 | outcome
a | DRSC04667 | 206 | 81 | – | – | inactive
a | DRSC04668 | 68.3 | 194 | – | – | inactive
CG10761 | DRSC17753 | 282 | 141 | – | – | inactive
CG14070 | DRSC02373 | 120 | 188 | – | – | inactive
CG13558 | DRSC04196 | 148 | 162 | – | – | inactive
Cap-D3 | DRSC02349 | 93.3 | 118 | – | – | inactive
Prosbeta4R2 | DRSC00503 | 105 | 134 | – | – | inactive
Pros28.2 (retired record) | DRSC16800 | 133 | 184 | – | – | inactive
mtsh | DRSC03070 | 148 | 152 | – | – | inactive
Ser | DRSC16856 | 158 | 182 | – | – | inactive
CG14402 | DRSC02386 | 163 | 121 | – | – | inactive
CG5787 | DRSC02895 | 75.4 | 130 | – | – | inactive
CG3355 | DRSC00598 | 102 | 127 | – | – | inactive
CG30377 | DRSC06477 | 194 | 155 | – | – | inactive
CG30377 | DRSC06799 | 129 | 116 | – | – | inactive
GatC + PolG2 | DRSC03312 | 72.5 | 103 | – | – | inactive
mRpL52 | DRSC06585 | 119 | 182 | – | – | inactive
Adsl | DRSC15500 | 210 | 245 | – | – | inactive
Mgtor | DRSC05958 | 172 | 136 | – | – | inactive
CG9743 | DRSC16552 | 124 | 109 | – | – | inactive
CG14273 | DRSC02377 | 171 | 174 | – | – | inactive
CG43244 | DRSC05336 | 71.5 | 123 | – | – | inactive
CG32115 | DRSC22607 | 91.4 | 160 | – | – | inactive
CG17328 | DRSC01927 | 110 | 87 | 164 | 162 | inactive
CG17328 | DRSC22448 | 86.5 | 174 | – | – | inactive
